No constants are given. Whether binding was seen depends on the method and setting. In cells and extracts the contact can be indirect. Some entries that bind do so weakly or less than the wild type.
T1: Cyclin dependent kinase 2 associated protein 1 (CDK2AP1) (human (endogenous in HEK293)) (UniProt O14519)
T1 sequence: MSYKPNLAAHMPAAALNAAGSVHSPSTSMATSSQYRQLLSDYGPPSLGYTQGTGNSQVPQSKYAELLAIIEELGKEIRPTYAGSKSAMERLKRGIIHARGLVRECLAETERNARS

By UniProt entry, the sequences of proteins in these tests, tags left out.
UniProt P10275: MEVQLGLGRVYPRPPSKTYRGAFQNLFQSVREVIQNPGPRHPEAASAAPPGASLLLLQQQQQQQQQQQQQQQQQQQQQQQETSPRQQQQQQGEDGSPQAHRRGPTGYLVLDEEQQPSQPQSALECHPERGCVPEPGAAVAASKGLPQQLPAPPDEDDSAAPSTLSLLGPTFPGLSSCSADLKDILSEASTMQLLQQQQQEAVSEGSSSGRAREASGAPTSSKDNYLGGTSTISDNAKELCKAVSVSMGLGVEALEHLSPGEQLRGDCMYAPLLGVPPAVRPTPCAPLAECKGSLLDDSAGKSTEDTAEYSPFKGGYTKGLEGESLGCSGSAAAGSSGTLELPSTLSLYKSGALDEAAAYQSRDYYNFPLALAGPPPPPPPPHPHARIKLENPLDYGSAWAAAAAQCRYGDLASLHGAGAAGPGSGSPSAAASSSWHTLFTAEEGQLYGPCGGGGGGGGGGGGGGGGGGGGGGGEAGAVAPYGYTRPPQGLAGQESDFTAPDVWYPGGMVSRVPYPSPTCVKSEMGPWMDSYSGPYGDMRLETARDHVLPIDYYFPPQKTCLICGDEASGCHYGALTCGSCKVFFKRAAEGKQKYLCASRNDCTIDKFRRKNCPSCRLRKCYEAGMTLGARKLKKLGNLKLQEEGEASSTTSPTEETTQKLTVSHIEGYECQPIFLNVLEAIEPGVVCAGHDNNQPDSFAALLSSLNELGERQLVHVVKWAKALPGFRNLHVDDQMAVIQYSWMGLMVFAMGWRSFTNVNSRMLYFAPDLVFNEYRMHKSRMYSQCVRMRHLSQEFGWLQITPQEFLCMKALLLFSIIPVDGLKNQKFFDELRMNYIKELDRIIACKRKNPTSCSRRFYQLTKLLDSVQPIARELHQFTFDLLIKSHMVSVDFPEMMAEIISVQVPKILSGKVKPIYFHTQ


Each molecule was assayed against T1, Cyclin dependent kinase 2 associated protein 1 (CDK2AP1) (human (endogenous in HEK293)) (assay: co-IP; CDK2AP1 monoclonal mouse antibody (5 ug) or IgG (negative control) on Pierce NHS-activated magnetic beads, incubated with 1500 ug of total HEK293 lysate for 2 h or overnight at 4 °C; eluate read by Western blotting).

| binding | Molecule |
| --- | --- |
| no binding | Androgen receptor (AR) (from UniProt P10275 1-920) |
| binds | p53 (from UniProt P04637 1-393) |
| no binding | ETS-related gene (ERG) (protein, UniProt P11308 1-479) MASTIKEALSVVSEDQSLFECAYGTPHLAKTEMTASSSSDYGQTSKMSPRVPQQDWLSQPPARVTIKMECNPSQVNGSRNSPDECSVAKGGKMVGSPDTVGMNYGSYMEEKHMPPPNMTTNERRVIVPADPTLWSTDHVRQWLEWAVKEYGLPDVNILLFQNIDGKELCKMTKDDFQRLTPSYNADILLSHLHYLRETPLPHLTSDDVDKALQNSPRLMHARNTGGAAFIFPNTSVYPEATQRITTRPDLPYEPPRRSAWTGHGHPTPQSKAAQPSPSTVPKTEDQRPQLDPYQILGPTSSRLANPGSGQIQLWQFLLELLSDSSNSSCITWEGTNGEFKMTDPDEVARRWGERKSKPNMNYDKLSRALRYYYDKNIMTKVHGKRYAYKFDFHGIAQALQPHPPESSLYKYPSDLPYMGSYHAHPQKMNFVAPHPPALPVTSSSFFAAPNPYWNSPTGGIYPNTRLPTSHMPSHLGTYY |

— PMC9658869
